Data published in the supplement of paper PMC5355238.
Where a name gives a salt, the structure may show the parent alone. Some of the results follow. Most entries show no effect beyond the scatter of the controls.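 Reh is a human leukemia cell line; the read-out is the median γH2AX antibody signal in S-phase cells by flow cytometry, with the score counting standard deviations from the median difference of each paired set of plates. Scores above 2.5 were called candidate hits, while scores below -2 mark compounds that lowered the MK1775-induced damage.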

Tested on: Reh
Experiment: Z' of S-phase gammaH2AX difference (drug + MK1775 minus drug alone) (Z-score); higher = stronger synergistic S-phase DNA damage with MK1775
Conditions: MK1775 concentration 400 nM; first compound 10 µM; 4 h

**Q.** With `O=c1[nH]nc(Sc2ncc([N+](=O)[O-])s2)n1-c1ccc2c(c1)OCCO2` + C=CCn1c(=O)c2cnc(Nc3ccc(N4CCN(C)CC4)cc3)nc2n1-c1cccc(C(C)(C)O)n1 [MK1775] as the molecule, how does the “Z' of S-phase gammaH2AX difference (Z-score)” value read?
**A.** The value was inactive: 1.23.

**Q.** For `CC/C(=C(\c1ccccc1)c1ccc(OCCN(C)C)cc1)c1ccccc1` [Tamoxifen citrate] + C=CCn1c(=O)c2cnc(Nc3ccc(N4CCN(C)CC4)cc3)nc2n1-c1cccc(C(C)(C)O)n1 [MK1775], which “Z' of S-phase gammaH2AX difference (Z-score)” value is on record?
**A.** The value was inactive: -0.606.

**Q.** How did the “Z' of S-phase gammaH2AX difference (Z-score)” value turn out when `CC/C(=C(\c1ccccc1)c1ccc(OCCN(C)C)cc1)c1ccccc1` [Tamoxifen Citrate (Nolvadex)] + C=CCn1c(=O)c2cnc(Nc3ccc(N4CCN(C)CC4)cc3)nc2n1-c1cccc(C(C)(C)O)n1 [MK1775] was run?
**A.** Its value is inactive: 0.191.

**Q.** With `O=C(O)c1cccnc1C(=O)O` [Quinolinic acid] + C=CCn1c(=O)c2cnc(Nc3ccc(N4CCN(C)CC4)cc3)nc2n1-c1cccc(C(C)(C)O)n1 [MK1775] as the molecule, how does the “Z' of S-phase gammaH2AX difference (Z-score)” value read?
**A.** Its value is inactive: -0.34.

**Q.** `CCN1CCC[C@H]1CNC(=O)c1c(O)c(Cl)cc(Cl)c1OC` [S(+)-Raclopride L-tartrate] + C=CCn1c(=O)c2cnc(Nc3ccc(N4CCN(C)CC4)cc3)nc2n1-c1cccc(C(C)(C)O)n1 [MK1775] was tested. Which “Z' of S-phase gammaH2AX difference (Z-score)” value did it give?
**A.** Its value is inactive: -0.244.

**Q.** How did the “Z' of S-phase gammaH2AX difference (Z-score)” value turn out when `CN1CCC[C@@H]1CCO[C@](C)(c1ccccc1)c1ccc(Cl)cc1` [Clemastine fumarate] + C=CCn1c(=O)c2cnc(Nc3ccc(N4CCN(C)CC4)cc3)nc2n1-c1cccc(C(C)(C)O)n1 [MK1775] was run?
**A.** The value was inactive: 0.571.

**Q.** Which “Z' of S-phase gammaH2AX difference (Z-score)” value does the source give for `CN1CCN(c2nc(C3=C(c4c[nH]c5ccccc45)C(=O)NC3=O)c3ccccc3n2)CC1` [Sotrastaurin (AEB071)] + C=CCn1c(=O)c2cnc(Nc3ccc(N4CCN(C)CC4)cc3)nc2n1-c1cccc(C(C)(C)O)n1 [MK1775] here?
**A.** The value was inactive: -0.498.

**Q.** How did the “Z' of S-phase gammaH2AX difference (Z-score)” value turn out when `COc1cc2ncnc(Nc3ccc(F)c(Cl)c3)c2cc1OCCCN1CCOCC1` [Gefitinib (Iressa)] + C=CCn1c(=O)c2cnc(Nc3ccc(N4CCN(C)CC4)cc3)nc2n1-c1cccc(C(C)(C)O)n1 [MK1775] was run?
**A.** The value was inactive: 0.16.

**Q.** For `Brc1c(NC2=NCCN2)ccc2nccnc12` + C=CCn1c(=O)c2cnc(Nc3ccc(N4CCN(C)CC4)cc3)nc2n1-c1cccc(C(C)(C)O)n1 [MK1775], which “Z' of S-phase gammaH2AX difference (Z-score)” value is on record?
**A.** Its value is inactive: 0.751.

**Q.** Which “Z' of S-phase gammaH2AX difference (Z-score)” value does the source give for `CN(C)CCOC(=O)COc1ccc(Cl)cc1` [Centrophenoxine hydrochloride] + C=CCn1c(=O)c2cnc(Nc3ccc(N4CCN(C)CC4)cc3)nc2n1-c1cccc(C(C)(C)O)n1 [MK1775] here?
**A.** The value was inactive: 0.197.

**Q.** How did the “Z' of S-phase gammaH2AX difference (Z-score)” value turn out when `N#C/C(=C\c1ccc(O)c(O)c1)C(=O)NCCCNC(=O)/C(C#N)=C/c1ccc(O)c(O)c1` [Tyrphostin AG 537] + C=CCn1c(=O)c2cnc(Nc3ccc(N4CCN(C)CC4)cc3)nc2n1-c1cccc(C(C)(C)O)n1 [MK1775] was run?
**A.** The value was inactive: 0.028.

**Q.** Which “Z' of S-phase gammaH2AX difference (Z-score)” value does the source give for `N=C(N)N/N=C/c1c(Cl)cccc1Cl` [Guanabenz acetate] + C=CCn1c(=O)c2cnc(Nc3ccc(N4CCN(C)CC4)cc3)nc2n1-c1cccc(C(C)(C)O)n1 [MK1775] here?
**A.** Its value is inactive: -0.867.

**Q.** With `OC(CCN1CCCCC1)(c1ccccc1)C1CCCCC1` (stereo not given) [Trihexyphenidyl hydrochloride] + C=CCn1c(=O)c2cnc(Nc3ccc(N4CCN(C)CC4)cc3)nc2n1-c1cccc(C(C)(C)O)n1 [MK1775] as the molecule, how does the “Z' of S-phase gammaH2AX difference (Z-score)” value read?
**A.** Its value is inactive: -0.14.

**Q.** For `CN(CCOc1ccc(CC2SC(=O)NC2=O)cc1)c1ccccn1` (stereo not given) [Rosiglitazone (Avandia)] + C=CCn1c(=O)c2cnc(Nc3ccc(N4CCN(C)CC4)cc3)nc2n1-c1cccc(C(C)(C)O)n1 [MK1775], which “Z' of S-phase gammaH2AX difference (Z-score)” value is on record?
**A.** The value was inactive: 0.0939.

**Q.** `Fc1cc(-c2cccc3ncc(-c4cnn(C5CCNCC5)c4)nc23)cc(F)c1CN1CCOCC1` + C=CCn1c(=O)c2cnc(Nc3ccc(N4CCN(C)CC4)cc3)nc2n1-c1cccc(C(C)(C)O)n1 [MK1775] was tested. Which “Z' of S-phase gammaH2AX difference (Z-score)” value did it give?
**A.** Its value is inactive: -0.471.

**Q.** With `O=C(O)/C(=C\c1c(C(=O)O)[nH]c2cc(Cl)cc(Cl)c12)c1ccccc1` + C=CCn1c(=O)c2cnc(Nc3ccc(N4CCN(C)CC4)cc3)nc2n1-c1cccc(C(C)(C)O)n1 [MK1775] as the molecule, how does the “Z' of S-phase gammaH2AX difference (Z-score)” value read?
**A.** Its value is inactive: 1.28.

**Q.** `CN(C)[C@@H]1C(O)=C(C(N)=O)C(=O)[C@@]2(O)C(O)=C3C(=O)c4c(O)ccc(Cl)c4[C@@H](O)[C@H]3C[C@@H]12` [Demeclocycline hydrochloride] + C=CCn1c(=O)c2cnc(Nc3ccc(N4CCN(C)CC4)cc3)nc2n1-c1cccc(C(C)(C)O)n1 [MK1775] was tested. Which “Z' of S-phase gammaH2AX difference (Z-score)” value did it give?
**A.** Its value is inactive: 0.362.

**Q.** With `N[C@@H](C(=O)N[C@@H]1C(=O)N2C(C(=O)O)=C(Cl)CS[C@H]12)c1ccccc1` [Cefaclor] + C=CCn1c(=O)c2cnc(Nc3ccc(N4CCN(C)CC4)cc3)nc2n1-c1cccc(C(C)(C)O)n1 [MK1775] as the molecule, how does the “Z' of S-phase gammaH2AX difference (Z-score)” value read?
**A.** The value was inactive: 1.18.

**Q.** With `CC(C)NC[C@H](O)c1ccc(O)c(O)c1` [R(-)-Isoproterenol (+)-bitartrate] + C=CCn1c(=O)c2cnc(Nc3ccc(N4CCN(C)CC4)cc3)nc2n1-c1cccc(C(C)(C)O)n1 [MK1775] as the molecule, how does the “Z' of S-phase gammaH2AX difference (Z-score)” value read?
**A.** Its value is inactive: 1.29.

**Q.** How did the “Z' of S-phase gammaH2AX difference (Z-score)” value turn out when `CC[C@@H]1/C=C(\C)C[C@H](C)C[C@H](OC)[C@H]2O[C@@](O)(C(=O)C(=O)N3CCCC[C@H]3C(=O)O[C@H](/C(C)=C/[C@@H]3CC[C@H](Cl)[C@H](OC)C3)[C@H](C)[C@@H](O)CC1=O)[C@H](C)C[C@@H]2OC` [Pimecrolimus] + C=CCn1c(=O)c2cnc(Nc3ccc(N4CCN(C)CC4)cc3)nc2n1-c1cccc(C(C)(C)O)n1 [MK1775] was run?
**A.** Its value is inactive: -0.0968.

**Q.** For `O=C(O)c1cc(O)c2ccc(Cl)cc2n1` [7-Chlorokynurenic acid] + C=CCn1c(=O)c2cnc(Nc3ccc(N4CCN(C)CC4)cc3)nc2n1-c1cccc(C(C)(C)O)n1 [MK1775], which “Z' of S-phase gammaH2AX difference (Z-score)” value is on record?
**A.** Its value is inactive: 0.0234.

**Q.** For `NCCS(=O)O` [Hypotaurine] + C=CCn1c(=O)c2cnc(Nc3ccc(N4CCN(C)CC4)cc3)nc2n1-c1cccc(C(C)(C)O)n1 [MK1775], which “Z' of S-phase gammaH2AX difference (Z-score)” value is on record?
**A.** The value was inactive: 1.07.

**Q.** Which “Z' of S-phase gammaH2AX difference (Z-score)” value does the source give for `NOCC(=O)O` [O-(Carboxymethyl)hydroxylamine hemihydrochloride] + C=CCn1c(=O)c2cnc(Nc3ccc(N4CCN(C)CC4)cc3)nc2n1-c1cccc(C(C)(C)O)n1 [MK1775] here?
**A.** Its value is inactive: 0.277.

**Q.** With `C=CC(=O)N1CCC[C@@H](n2nc(-c3ccc(Oc4ccccc4)cc3)c3c(N)ncnc32)C1` + C=CCn1c(=O)c2cnc(Nc3ccc(N4CCN(C)CC4)cc3)nc2n1-c1cccc(C(C)(C)O)n1 [MK1775] as the molecule, how does the “Z' of S-phase gammaH2AX difference (Z-score)” value read?
**A.** The value was inactive: -0.588.

**Q.** `CC1=C(CC(=O)O)c2cc(F)ccc2/C1=C\c1ccc([S+](C)[O-])cc1` (stereo not given) [Sulindac] + C=CCn1c(=O)c2cnc(Nc3ccc(N4CCN(C)CC4)cc3)nc2n1-c1cccc(C(C)(C)O)n1 [MK1775] was tested. Which “Z' of S-phase gammaH2AX difference (Z-score)” value did it give?
**A.** The value was inactive: -0.479.

**Q.** How did the “Z' of S-phase gammaH2AX difference (Z-score)” value turn out when `CN(C)CCCO[C@@H]1[C@H]2OC(C)(C)O[C@H]2O[C@@H]1[C@H](O)CO` [Amiprilose hydrochloride] + C=CCn1c(=O)c2cnc(Nc3ccc(N4CCN(C)CC4)cc3)nc2n1-c1cccc(C(C)(C)O)n1 [MK1775] was run?
**A.** The value was inactive: -0.575.

**Q.** `Cc1nc(N)sc1-c1ccnc(Nc2ccc(N3CCOCC3)cc2)n1` + C=CCn1c(=O)c2cnc(Nc3ccc(N4CCN(C)CC4)cc3)nc2n1-c1cccc(C(C)(C)O)n1 [MK1775] was tested. Which “Z' of S-phase gammaH2AX difference (Z-score)” value did it give?
**A.** Its value is inactive: -0.977.

**Q.** How did the “Z' of S-phase gammaH2AX difference (Z-score)” value turn out when `CCc1cccc2c3c([nH]c12)C(CC)(CC(=O)O)OCC3` (stereo not given) [Etodolac] + C=CCn1c(=O)c2cnc(Nc3ccc(N4CCN(C)CC4)cc3)nc2n1-c1cccc(C(C)(C)O)n1 [MK1775] was run?
**A.** The value was inactive: -0.702.

**Q.** How did the “Z' of S-phase gammaH2AX difference (Z-score)” value turn out when `C[C@@H]1CN(CC(=O)Nc2ccc3c(c2)Cc2cccc(-c4cc(=O)cc(N5CCOCC5)o4)c2S3)C[C@H](C)O1` + C=CCn1c(=O)c2cnc(Nc3ccc(N4CCN(C)CC4)cc3)nc2n1-c1cccc(C(C)(C)O)n1 [MK1775] was run?
**A.** The value was inactive: -0.214.

**Q.** With `COc1ccc(CNC(=O)Nc2ncc([N+](=O)[O-])s2)cc1` + C=CCn1c(=O)c2cnc(Nc3ccc(N4CCN(C)CC4)cc3)nc2n1-c1cccc(C(C)(C)O)n1 [MK1775] as the molecule, how does the “Z' of S-phase gammaH2AX difference (Z-score)” value read?
**A.** The value was inactive: 0.0362.

**Q.** For `CCCn1c(=O)c2[nH]c(-c3ccc(S(=O)(=O)O)cc3)nc2n(CCC)c1=O` [1,3-Dipropyl-8-p-sulfophenylxanthine] + C=CCn1c(=O)c2cnc(Nc3ccc(N4CCN(C)CC4)cc3)nc2n1-c1cccc(C(C)(C)O)n1 [MK1775], which “Z' of S-phase gammaH2AX difference (Z-score)” value is on record?
**A.** The value was inactive: -0.438.

**Q.** For `Cc1ccccc1N1C(=O)c2cc(S(N)(=O)=O)c(Cl)cc2NC1C` (stereo not given) [Metolazone] + C=CCn1c(=O)c2cnc(Nc3ccc(N4CCN(C)CC4)cc3)nc2n1-c1cccc(C(C)(C)O)n1 [MK1775], which “Z' of S-phase gammaH2AX difference (Z-score)” value is on record?
**A.** The value was inactive: 0.48.

**Q.** How did the “Z' of S-phase gammaH2AX difference (Z-score)” value turn out when `O=C1N(c2ccccc2)c2ccccc2C1(Cc1ccncc1)Cc1ccncc1` [Linopirdine] + C=CCn1c(=O)c2cnc(Nc3ccc(N4CCN(C)CC4)cc3)nc2n1-c1cccc(C(C)(C)O)n1 [MK1775] was run?
**A.** Its value is inactive: 0.597.

**Q.** For `COc1nc(-c2ccc3c(c2)OCO3)n(-c2ccc(NC(=O)CSc3ccccc3)cc2)n1` [SecinH3] + C=CCn1c(=O)c2cnc(Nc3ccc(N4CCN(C)CC4)cc3)nc2n1-c1cccc(C(C)(C)O)n1 [MK1775], which “Z' of S-phase gammaH2AX difference (Z-score)” value is on record?
**A.** The value was inactive: 0.23.

**Q.** Which “Z' of S-phase gammaH2AX difference (Z-score)” value does the source give for `Nc1cccc2c1CN(C1CCC(=O)NC1=O)C2=O` (stereo not given) [Lenalidomide] + C=CCn1c(=O)c2cnc(Nc3ccc(N4CCN(C)CC4)cc3)nc2n1-c1cccc(C(C)(C)O)n1 [MK1775] here?
**A.** The value was inactive: 0.0806.
